Test system: p53 signaling (p53RE-bla HCT-116 cells)
Experiment: cells
Assay type: cell-based
Settings: Homo sapiens, HCT-116, read-out: p53 activation EC50, cherry pick confirmation

`CNC(=O)c1ccccc1Sc1ccc2c(/C=C/c3ccccn3)n[nH]c2c1` [Axitinib] was tested, and the EC50 was 3.82 µM.

Source: article PMC9151520 (Archives of Toxicology, 2022)
